Experimental data as given in article PMC5592720 (Planta medica, 2013).
“And” between values parts separate entries of the source, which are not always exact repeats. Equal entries are not always repeated.

Experiments:
in vitro = in vitro ADME, human; settings: human, Caco-2
Caco-2 cell monolayers = test: in vitro; format: in vitro ADME, human; settings: Caco-2 monolayers, 1% HPβCD, 2 h

Papp A→B at 2 h (in vitro): 2.3 ± 0.5 ×10⁻⁶ cm/s
efflux ratio at 120 min (in vitro): 1.2
% Transport Absorptive direction (A–B) (Caco-2 cell monolayers): 2.8% and 1.3 ± 0.1%
% Transport Secretory direction (A–B) (Caco-2 cell monolayers; secretory direction): 1.4% and 1.4 ± 0.4%
Compound: CC(C)NCC(O)COc1ccc(CC(N)=O)cc1 (stereo not shown) [Atenolol, atenolol, reference compound]
